{"source": "patent US20240409627A1", "molecular_target": "T1, myc-endoglin (UniProt P17813)", "T1 sequence (looked up)": "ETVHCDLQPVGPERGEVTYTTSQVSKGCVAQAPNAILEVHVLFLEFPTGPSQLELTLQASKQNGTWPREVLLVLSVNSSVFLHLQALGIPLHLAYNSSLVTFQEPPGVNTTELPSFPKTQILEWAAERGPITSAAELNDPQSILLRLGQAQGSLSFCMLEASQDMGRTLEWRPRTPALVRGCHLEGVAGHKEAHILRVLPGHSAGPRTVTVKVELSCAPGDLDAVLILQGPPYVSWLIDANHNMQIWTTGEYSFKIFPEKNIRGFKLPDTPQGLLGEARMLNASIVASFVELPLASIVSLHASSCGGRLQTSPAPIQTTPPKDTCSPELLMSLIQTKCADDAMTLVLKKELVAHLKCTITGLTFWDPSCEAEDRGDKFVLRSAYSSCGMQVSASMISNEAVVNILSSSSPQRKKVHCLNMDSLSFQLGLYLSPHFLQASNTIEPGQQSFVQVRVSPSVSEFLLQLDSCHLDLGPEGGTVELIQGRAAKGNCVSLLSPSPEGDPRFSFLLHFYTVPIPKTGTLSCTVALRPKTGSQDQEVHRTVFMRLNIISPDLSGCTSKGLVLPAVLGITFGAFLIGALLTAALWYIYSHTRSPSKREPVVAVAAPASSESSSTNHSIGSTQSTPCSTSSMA", "assay": "patch/FRAP on live COS7 cells", "note": "No constants are given. Whether binding was seen depends on the method and setting. Binding calls can cover weak binding; strength is not graded here. Sequences can lack the tags named with a protein.", "data": [{"substance": "extracellularly tagged HA-ALK4 (human) (receptor)", "values": [{"measurement": "binding", "value": "binds"}]}]}
